# Test results taken from the supplement of paper PMC4604168 (melanoma cell lines).
# The other results are listed elsewhere or left out. Many values rest on one well or one pass, so single values are uncertain.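 Cells were imaged in 1,536-well plates, and nuclei stained with an antibody against cleaved PARP were counted against all DNA-stained nuclei to give the apoptosis fraction. Screening doses were chosen to leave most cells alive, and resting and induced cleaved-PARP levels differ strongly between cell lines.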
# System: G361
# Assay: cleaved PARP positive nuclei fraction relative to DMSO control; melanoma cells; higher = more apoptosis
# Settings: library dose: low library concentration; 72 h
row,SMILES,cleaved PARP positive nuclei fraction
1,"COc1ccc2c(c1)CCC1C2CCC2(C)C(NCCCCCCN3C(=O)C=CC3=O)CCC12 (stereo not drawn) + Oc1cc(-c2nc(-c3ccccc3)[nH]c2-c2ccncc2)ccc1Cl [L779450] (first compound 0.4 µM, partner dose 0.2 µM)",238%
2,"COc1cc2c(Oc3ccc4[nH]c(C)cc4c3F)ncnc2cc1OCCCN1CCCC1 [cediranib] + Oc1cc(-c2nc(-c3ccccc3)[nH]c2-c2ccncc2)ccc1Cl [L779450] (first compound 0.4 µM, partner dose 0.2 µM)",132%
3,"O=S(=O)(c1ccccc1)N(CC(F)(F)F)c1ccc(C(O)(C(F)(F)F)C(F)(F)F)cc1 + Cn1cc(/C=C2\C(=O)Nc3cccnc32)c2ccccc21 [GW441756] (first compound 1.4 µM, partner dose 0.4 µM)",333%
4,"N#Cc1c(O)c2c(-c3ccc(-c4ccccc4O)cc3)csc2[nH]c1=O + CC(C)CCN1c2nc(Nc3cc(F)c(O)c(F)c3)ncc2N(C)C(=O)C1C [BID1870] (first compound 2 µM, partner dose 0.2 µM)",85.1%
5,"O=S(=O)(c1ccccc1)N(CC(F)(F)F)c1ccc(C(O)(C(F)(F)F)C(F)(F)F)cc1 + Oc1cc(-c2nc(-c3ccccc3)[nH]c2-c2ccncc2)ccc1Cl [L779450] (first compound 1.4 µM, partner dose 0.2 µM)",115%
6,"CN(NC(=O)CC(=O)NN(C)C(=S)c1ccccc1)C(=S)c1ccccc1 + COC(=O)c1sccc1S(=O)(=O)Nc1ccc(Nc2ccccc2)cc1OC [GSK0660] (first compound 0.006 µM, partner dose 1 µM)",187%
7,"COc1cc2c(Oc3ccc4[nH]c(C)cc4c3F)ncnc2cc1OCCCN1CCCC1 [cediranib] + O=C(O)C(=O)Nc1sc2c(c1C(=O)O)CCNC2 [TCS401] (first compound 0.4 µM, partner dose 1.66667 µM)",18.1%
8,"COC(=O)c1sccc1S(=O)(=O)Nc1ccc(Nc2ccccc2)cc1OC + CCCCCCCCCCCC1=C(O)C(=O)C=C(O)C1=O [Embelin] (first compound 1 µM, partner dose 1.2 µM)",105%
